The values that follow come from paper PMC10497945 (Frontiers in Pharmacology, 2023).

A short description of the data set: general procedure: Fmoc solid-phase peptide synthesis; 2-chlorotrityl chloride resin (Cl-Trt-resin) preloaded with amino acid; HOBt/DCC. The conditions noted are these: TFA salt.
Where [1] appears, read: whole synthesis, scale of the general procedure 1.1 mmol.

Strings that start with PEPTIDE1 are HELM notation: dots part the residues, brackets hold end groups and non-standard residues.

Fmoc Ala-Val-Pro-Ile-Gly-Lys-OH: for the setting “whole synthesis”, the crude mass is 325 mg. Where the note is “whole synthesis, analytical RP-HPLC and elemental analysis, scale of the general procedure 1.1 mmol”, the “crude HPLC purity” value was over 95%. In addition, under setting [1], the crude yield is 36.4%. Turning to FmocAla-Val-Pro-Ile-Gly-Lys(Boc)-OH, the crude mass (whole synthesis) is on record as 325 mg. Moreover, the crude yield under setting [1] is reported as 32.7%.

In the case of “c [Arg (pbf)-Gly-Asp(OtBu)-phe-Lys (Cbz)]”, the cyclisation yield (cyclisation step) was 88.3%. Take Arg(Pbf)-Gly-Asp(OtBu)-phe-Lys(Cbz)OH: the crude mass (whole synthesis) was 650 mg. For the same substance, the crude yield under setting [1] was 55.5%.

“PEPTIDE1{R.G.D.[dF].K}$PEPTIDE1,PEPTIDE1,1:R1-5:R2$$$V2.0”: the step yield (late stage modification step) turned out to be 92%.
